These results are taken from patent US20250388565A1, “ESTROGEN RECEPTOR ALPHA DEGRADERS AND METHODS OF USE THEREOF” (Relay Therapeutics, Inc., priority 2022, published 2025).

Chains of the proteins cited; added tags and fusions are not shown.
UniProt P03372, whole entry: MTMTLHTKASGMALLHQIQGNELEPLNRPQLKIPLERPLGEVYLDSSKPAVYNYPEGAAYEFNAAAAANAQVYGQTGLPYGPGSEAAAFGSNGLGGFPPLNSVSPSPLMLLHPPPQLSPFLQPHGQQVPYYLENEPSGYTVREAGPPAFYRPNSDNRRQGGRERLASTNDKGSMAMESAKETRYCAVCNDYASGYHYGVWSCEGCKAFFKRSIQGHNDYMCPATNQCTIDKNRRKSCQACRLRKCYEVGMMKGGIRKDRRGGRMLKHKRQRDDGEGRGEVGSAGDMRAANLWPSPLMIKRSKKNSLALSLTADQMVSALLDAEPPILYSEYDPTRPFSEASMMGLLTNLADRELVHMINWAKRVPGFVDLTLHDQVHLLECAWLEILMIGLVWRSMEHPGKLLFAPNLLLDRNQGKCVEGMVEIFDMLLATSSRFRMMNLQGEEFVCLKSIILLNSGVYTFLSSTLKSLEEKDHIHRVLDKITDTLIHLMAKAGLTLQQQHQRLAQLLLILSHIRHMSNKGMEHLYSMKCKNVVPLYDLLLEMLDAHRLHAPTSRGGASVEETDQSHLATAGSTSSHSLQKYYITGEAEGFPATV

Molecules are shown by their SMILES. Structures were worked out from names or drawings and are uncertain. Where only a bound is given, the exact number is not on record here.

The target of this test is ERα protein (HiBiT-tagged) in ESR1_HiBiT KI MCF7 cells (Homo sapiens, UniProt P03372). Put plainly: Nano Glo HiBiT Lytic Degradation Assay. Format: cell-based. The settings on record: read-out: MCF7 ESR1 HiBiT - (DC50), 6 hours with compound, 14-point dose response 1:3, bell-shape curve fit, half-maximal effect of first Hill model.

Usually DC50 stands for the concentration giving 50% degradation.

On to `Cc1ccc(F)cc1[C@@H]1OCc2cc(O)ccc2[C@@H]1c1ccc(N2CCC(CN3CCN(c4ccc5c(c4)CN([C@H]4CCC(=O)NC4=O)C5=O)CC3)CC2)cc1`, for which the DC50 was 6 nM.

On to `COC(OC)C1CCN(c2cc(C)c([C@@H]3c4ccc(O)cc4CC[C@@H]3C3CCCCC3)c(F)c2)CC1`, for which the DC50 is not below 10000 nM.
